Reference: patent publication US12410262B2, “Peptide conjugates of cytotoxins as therapeutics” (Cybrexa 2, Inc., priority 2019, dated 2025)
For at least one compound, name, drawing or mass did not settle the structure.

Experiments:
[1] = tested on: JIMT-1 HER2 intermediate breast cancer flank tumors; experiment: Efficacy in JIMT-1 HER2 intermediate breast cancer model; assay type: in vivo, NOD.SCID mice; conditions: JIMT-1 model, 10 or 20 mg/kg i.p. QD×4/wk×3
[2] = tested on: HCT116 colorectal flank tumors; experiment: Efficacy in HCT116 colorectal cancer model; assay type: in vivo, athymic nude Foxn^nu mice; conditions: 10 or 20 mg/kg i.p. QD×4/wk×3
[3] = tested on: MDA-MB-231 triple negative breast cancer flank tumors; experiment: Efficacy in MDA-MB-231 triple negative breast cancer model; assay type: in vivo, athymic nude Foxn^nu mice; conditions: MDA-MB-231 model, 5, 10 or 20 mg/kg i.p. QD×4/wk×3
[4] = tested on: MKN45 HER2 negative gastric cancer flank tumors; experiment: Efficacy in MKN45 HER2 negative gastric cancer model; assay type: in vivo, athymic nude Foxn^nu mice; conditions: 2.5-20 mg/kg i.p. QD×4/wk×2

CC[C@@]1(O)C(=O)OCc2c1cc1n(c2=O)Cc2c-1nc1cc(F)c(C)c3c1c2[C@@H](NC(=O)O[C@H]1CCCC[C@@H]1SSC[C@H](NC(=O)[C@H](Cc1c[nH]c2ccccc12)NC(=O)[C@H](CC(C)C)NC(=O)[C@H](CC(C)C)NC(=O)[C@H](CC(=O)O)NC(=O)[C@H](CC(C)C)NC(=O)[C@H](CC(C)C)NC(=O)[C@H](CC(C)C)NC(=O)[C@@H](NC(=O)[C@H](CC(=O)O)NC(=O)[C@@H](NC(=O)[C@@H]1CCCN1C(=O)[C@H](Cc1ccccc1)NC(=O)[C@H](CC(C)C)NC(=O)[C@H](CC(C)C)NC(=O)[C@H](CC(=O)O)NC(=O)[C@H](CC(C)C)NC(=O)[C@H](Cc1ccc(O)cc1)NC(=O)[C@H](C)NC(=O)[C@H](CCCNC(=N)N)NC(=O)[C@H](Cc1c[nH]c2ccccc12)NC(=O)[C@@H]1CCCN1C(=O)[C@H](CC(N)=O)NC(=O)[C@H](CCC(N)=O)NC(=O)[C@H](CC(=O)O)NC(=O)[C@H](CC(=O)O)NC(=O)[C@H](C)N)[C@@H](C)O)[C@@H](C)O)C(=O)NCC(=O)O)CC3 [Compound 11]
potent anti-tumor activity: anti-tumor activity (mean tumor volume) [1] | anti-tumor activity (mean tumor volume, survival) [2] | anti-tumor activity (mean tumor volume) [3] | anti-tumor activity (mean tumor volume, survival) [4]
